PMC9167300
These are yes or no findings as the source states them, for the method shown. In cells and extracts the contact can be indirect. Some binding calls cover weakened binding; strength is not graded here. Where a sequence is shown, tags or fusion partners need not be part of it.

Experiments:
[1] = target: T1, Flag-tagged full-length TRPM8 (Flag-TRPM8) (rat), Q8R455; assay: cross-linking; PANC-1 cells transfected, treated with 1 μM DSS for 30 min before harvest; lysates on Western blot; with or without HA-LCK, siLCK, GFP-14-3-3ζ or si14-3-3ζ; conditions: remark: other sources report otherwise
[2] = target: T1, Flag-tagged full-length TRPM8 …; assay: co-IP; AsPC-1 cells co-transfected with Flag- and GFP-tagged TRPM8; IP with anti-Flag antibody; with or without HA-LCK, PP2, siLCK or si14-3-3ζ; Western blot; conditions: remark: other sources report otherwise

| Binder | binding [1] | binding [2] |
| --- | --- | --- |
| Flag-tagged full-length TRPM8 (Flag-TRPM8), Q8R455 1-1104 (protein) MSFEGARLSMRSRRNGTLGSTRTLYSSVSRSTDVSYSESDLVNFIQANFKKRECVFFTRDSKAMESICKCGYAQSQHIEGTQINQNEKWNYKKHTKEFPTDAFGDIQFETLGKKGKYLRLSCDTDSETLYELLTQHWHLKTPNLVISVTGGAKNFALKPRMRKIFSRLIYIAQSKGAWILTGGTHYGLMKYIGEVVRDNTISRNSEENIVAIGIAAWGMVSNRDTLIRNCDDEGHFSAQYIMDDFMRDPLYILDNNHTHLLLVDNGCHGHPTVEAKLRNQLEKYISERTSQDSNYGGKIPIVCFAQGGGRETLKAINTSVKSKIPCVVVEGSGQIADVIASLVEVEDVLTSSMVKEKLVRFLPRTVSRLPEEEIESWIKWLKEILESPHLLTVIKMEEAGDEVVSSAISYALYKAFSTNEQDKDNWNGQLKLLLEWNQLDLASDEIFTNDRRWESADLQEVMFTALIKDRPKFVRLFLENGLNLQKFLTNEVLTELFSTHFSTLVYRNLQIAKNSYNDALLTFVWKLVANFRRSFWKEDRSSREDLDVELHDASLTTRHPLQALFIWAILQNKKELSKVIWEQTKGCTLAALGASKLLKTLAKVKNDINAAGESEELANEYETRAVELFTECYSSDEDLAEQLLVYSCEAWGGSNCLELAVEATDQHFIAQPGVQNFLSKQWYGEISRDTKNWKIILCLFIIPLVGCGLVSFRKKPIDKHKKLLWYYVAFFTSPFVVFSWNVVFYIAFLLLFAYVLLMDFHSVPHTPELILYALVFVLFCDEVRQWYMNGVNYFTDLWNVMDTLGLFYFIAGIVFRLHSSNKSSLYSGRVIFCLDYIIFTLRLIHIFTVSRNLGPKIIMLQRMLIDVFFFLFLFAVWMVAFGVARQGILRQNEQRWRWIFRSVIYEPYLAMFGQVPSDVDSTTYDFSHCTFSGNESKPLCVELDEYNLPRFPEWITIPLVCIYMLSTNILLVNLLVAMFGYTVGIVQENNDQVWKFQRYFLVQEYCNRLNIPFPFVVFAYFYMVVKKCFKCCCKEKNTESSACCFRNEDNETLAWEGVMKENYLVKINTKANDNAEEMRHRFRQLDTKLNDLKGLLKEIANKIK | binds | – |
| GFP-tagged wild-type TRPM8 (GFP-TRPM8), Q8R455 1-1104 (protein) MSFEGARLSMRSRRNGTLGSTRTLYSSVSRSTDVSYSESDLVNFIQANFKKRECVFFTRDSKAMESICKCGYAQSQHIEGTQINQNEKWNYKKHTKEFPTDAFGDIQFETLGKKGKYLRLSCDTDSETLYELLTQHWHLKTPNLVISVTGGAKNFALKPRMRKIFSRLIYIAQSKGAWILTGGTHYGLMKYIGEVVRDNTISRNSEENIVAIGIAAWGMVSNRDTLIRNCDDEGHFSAQYIMDDFMRDPLYILDNNHTHLLLVDNGCHGHPTVEAKLRNQLEKYISERTSQDSNYGGKIPIVCFAQGGGRETLKAINTSVKSKIPCVVVEGSGQIADVIASLVEVEDVLTSSMVKEKLVRFLPRTVSRLPEEEIESWIKWLKEILESPHLLTVIKMEEAGDEVVSSAISYALYKAFSTNEQDKDNWNGQLKLLLEWNQLDLASDEIFTNDRRWESADLQEVMFTALIKDRPKFVRLFLENGLNLQKFLTNEVLTELFSTHFSTLVYRNLQIAKNSYNDALLTFVWKLVANFRRSFWKEDRSSREDLDVELHDASLTTRHPLQALFIWAILQNKKELSKVIWEQTKGCTLAALGASKLLKTLAKVKNDINAAGESEELANEYETRAVELFTECYSSDEDLAEQLLVYSCEAWGGSNCLELAVEATDQHFIAQPGVQNFLSKQWYGEISRDTKNWKIILCLFIIPLVGCGLVSFRKKPIDKHKKLLWYYVAFFTSPFVVFSWNVVFYIAFLLLFAYVLLMDFHSVPHTPELILYALVFVLFCDEVRQWYMNGVNYFTDLWNVMDTLGLFYFIAGIVFRLHSSNKSSLYSGRVIFCLDYIIFTLRLIHIFTVSRNLGPKIIMLQRMLIDVFFFLFLFAVWMVAFGVARQGILRQNEQRWRWIFRSVIYEPYLAMFGQVPSDVDSTTYDFSHCTFSGNESKPLCVELDEYNLPRFPEWITIPLVCIYMLSTNILLVNLLVAMFGYTVGIVQENNDQVWKFQRYFLVQEYCNRLNIPFPFVVFAYFYMVVKKCFKCCCKEKNTESSACCFRNEDNETLAWEGVMKENYLVKINTKANDNAEEMRHRFRQLDTKLNDLKGLLKEIANKIK | – | binds |
